According to patent publication US20160280786A1:
These are yes or no findings as the source states them, for the method shown. Some entries that bind do so weakly or less than the wild type.

Sequences of proteins named here, by UniProt entry; tags and fusion partners are left off. A change or cut given only in a name is not applied to a line headed by its entry. A line that says so, or that is headed by a name, gives the form on record, which may keep a tag or linker.
human CTLA4 (Y201 mutated to valine) on stably transfected CHO-K1 cells (P16410, form named): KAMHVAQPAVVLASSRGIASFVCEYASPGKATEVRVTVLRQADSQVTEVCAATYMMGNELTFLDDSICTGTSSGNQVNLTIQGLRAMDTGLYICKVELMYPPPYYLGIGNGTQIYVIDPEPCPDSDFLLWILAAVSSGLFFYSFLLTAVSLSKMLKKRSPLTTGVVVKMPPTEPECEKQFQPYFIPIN

Target: human CTLA4 (Y201 mutated to valine) on stably transfected CHO-K1 cells (human) (UniProt P16410)
Test: FACS direct binding titration on CHO cells with human CTLA4; column in nM

binding: binds
B1: 4CTLAPMP08E5 (VHH)
VHH: EVQLVESGGGLVQPGGSLRLSCAASRDIFTRNIMGWYRQAPGKQRDLVASITPGGNMYYADSVKGRFTISRDGAKNTVYLQMNSLKPEDTAVYYCNAHGSILLDRSNYWGQGTQVTVSS
